The source of these data is article PMC4840320 (Scientific Reports, 2016).

By UniProt entry, the sequences of proteins in these tests, tags left out.
UniProt Q10658: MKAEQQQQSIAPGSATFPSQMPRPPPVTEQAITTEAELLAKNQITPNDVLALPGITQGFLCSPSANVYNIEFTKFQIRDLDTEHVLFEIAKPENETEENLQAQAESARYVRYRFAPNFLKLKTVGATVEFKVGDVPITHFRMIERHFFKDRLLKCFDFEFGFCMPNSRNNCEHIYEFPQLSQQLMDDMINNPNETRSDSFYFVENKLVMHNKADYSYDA

In experiment [1] the target is UNC-119 with a BiFC tag (Venus fragment) in C. elegans (C. elegans) (UniProt Q10658). The experiment can be described thus: split reporter; Venus-based BiFC in live transgenic C. elegans (N2 background; the ARL-13 pairs also in arl-3 or unc-119 mutants); signal in the InV-like compartment of cilia.
The target is the same in experiment [2]. The experiment can be described thus: split reporter; Venus-based BiFC in unc-119, arl-3 double mutant C. elegans (data not shown).

These are yes or no findings as the source states them, for the method shown. In cells and extracts the contact can be indirect. Some binding calls cover weakened binding; strength is not graded here. Sequences can lack the tags named with a protein.

B1: ARL-3(DN) with a BiFC tag (Venus fragment) in C. elegans (protein, UniProt O45379 1-184)
chain: MGLIDVLKSFKSPSGREIRILLLGLDNAGKNTILKQLSSEDVQHVTPTKGFNVKTVAAMGDIRLNVWDIGGQRSIRPYWSNYYENIDTLIFVIDSNDKKRFDEMNIELGELLDEEKLRKVPVLIFANKQDLVTAASSEEITRKLNLDLLRDRTWHIQACSALKNEGINDGITWVASNLKPASKK
As for B1, the binding result in experiment [1] and in experiment [2] was “binds” in each case.
